The values that follow come from patent US20190300589A1.

For assay [1], the target named is T1, human plasma derived Factor H (hFH) (human), P08603.
T1 chain: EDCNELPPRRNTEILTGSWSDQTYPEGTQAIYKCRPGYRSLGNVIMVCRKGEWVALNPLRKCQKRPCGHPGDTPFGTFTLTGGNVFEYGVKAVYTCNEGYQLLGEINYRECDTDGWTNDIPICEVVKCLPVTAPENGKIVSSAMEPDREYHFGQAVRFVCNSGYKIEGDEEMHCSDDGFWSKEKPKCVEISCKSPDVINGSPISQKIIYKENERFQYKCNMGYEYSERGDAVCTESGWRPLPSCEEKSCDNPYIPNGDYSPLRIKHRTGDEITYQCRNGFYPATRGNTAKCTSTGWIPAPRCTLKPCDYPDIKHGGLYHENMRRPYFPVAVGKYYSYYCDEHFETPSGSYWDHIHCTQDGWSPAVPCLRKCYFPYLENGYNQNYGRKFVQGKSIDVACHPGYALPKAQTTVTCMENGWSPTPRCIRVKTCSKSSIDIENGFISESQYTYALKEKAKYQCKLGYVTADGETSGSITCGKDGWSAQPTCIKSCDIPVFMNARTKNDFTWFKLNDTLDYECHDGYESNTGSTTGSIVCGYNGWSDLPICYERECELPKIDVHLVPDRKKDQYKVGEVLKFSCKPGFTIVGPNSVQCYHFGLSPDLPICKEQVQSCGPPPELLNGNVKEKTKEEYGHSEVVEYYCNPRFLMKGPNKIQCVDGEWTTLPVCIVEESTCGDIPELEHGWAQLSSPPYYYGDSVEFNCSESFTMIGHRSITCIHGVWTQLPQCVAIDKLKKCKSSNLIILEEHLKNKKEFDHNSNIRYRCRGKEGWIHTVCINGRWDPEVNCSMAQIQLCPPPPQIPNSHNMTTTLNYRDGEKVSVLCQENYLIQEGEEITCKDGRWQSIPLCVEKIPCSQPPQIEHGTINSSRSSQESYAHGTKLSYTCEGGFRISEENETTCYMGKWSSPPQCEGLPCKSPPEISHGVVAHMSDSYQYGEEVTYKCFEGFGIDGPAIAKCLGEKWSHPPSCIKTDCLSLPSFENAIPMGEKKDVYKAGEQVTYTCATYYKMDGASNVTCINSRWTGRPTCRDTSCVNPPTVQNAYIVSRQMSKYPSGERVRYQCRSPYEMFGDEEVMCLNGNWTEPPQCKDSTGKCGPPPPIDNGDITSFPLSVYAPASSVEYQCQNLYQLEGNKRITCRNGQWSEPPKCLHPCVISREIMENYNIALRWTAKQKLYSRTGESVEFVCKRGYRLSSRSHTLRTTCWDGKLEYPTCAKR
Briefly: size exclusion chromatography (Superdex 200 10/300 GL), self-association. The conditions noted are these: remark: other sources report otherwise. (Size exclusion chromatography separates by hydrodynamic size, large species first.)

Assay [2] has as its target C5 (complement component C5), P01031. Briefly: ELISA, FHR1 immobilised, C5 in solution. The conditions noted are these: remark: other sources report otherwise.

No constants are given. Whether binding was seen depends on the method and setting. Some binding calls cover weakened binding; strength is not graded here.

B1: human plasma derived Factor H (hFH), P08603 19-1231 (protein)
chain: EDCNELPPRRNTEILTGSWSDQTYPEGTQAIYKCRPGYRSLGNVIMVCRKGEWVALNPLRKCQKRPCGHPGDTPFGTFTLTGGNVFEYGVKAVYTCNEGYQLLGEINYRECDTDGWTNDIPICEVVKCLPVTAPENGKIVSSAMEPDREYHFGQAVRFVCNSGYKIEGDEEMHCSDDGFWSKEKPKCVEISCKSPDVINGSPISQKIIYKENERFQYKCNMGYEYSERGDAVCTESGWRPLPSCEEKSCDNPYIPNGDYSPLRIKHRTGDEITYQCRNGFYPATRGNTAKCTSTGWIPAPRCTLKPCDYPDIKHGGLYHENMRRPYFPVAVGKYYSYYCDEHFETPSGSYWDHIHCTQDGWSPAVPCLRKCYFPYLENGYNQNYGRKFVQGKSIDVACHPGYALPKAQTTVTCMENGWSPTPRCIRVKTCSKSSIDIENGFISESQYTYALKEKAKYQCKLGYVTADGETSGSITCGKDGWSAQPTCIKSCDIPVFMNARTKNDFTWFKLNDTLDYECHDGYESNTGSTTGSIVCGYNGWSDLPICYERECELPKIDVHLVPDRKKDQYKVGEVLKFSCKPGFTIVGPNSVQCYHFGLSPDLPICKEQVQSCGPPPELLNGNVKEKTKEEYGHSEVVEYYCNPRFLMKGPNKIQCVDGEWTTLPVCIVEESTCGDIPELEHGWAQLSSPPYYYGDSVEFNCSESFTMIGHRSITCIHGVWTQLPQCVAIDKLKKCKSSNLIILEEHLKNKKEFDHNSNIRYRCRGKEGWIHTVCINGRWDPEVNCSMAQIQLCPPPPQIPNSHNMTTTLNYRDGEKVSVLCQENYLIQEGEEITCKDGRWQSIPLCVEKIPCSQPPQIEHGTINSSRSSQESYAHGTKLSYTCEGGFRISEENETTCYMGKWSSPPQCEGLPCKSPPEISHGVVAHMSDSYQYGEEVTYKCFEGFGIDGPAIAKCLGEKWSHPPSCIKTDCLSLPSFENAIPMGEKKDVYKAGEQVTYTCATYYKMDGASNVTCINSRWTGRPTCRDTSCVNPPTVQNAYIVSRQMSKYPSGERVRYQCRSPYEMFGDEEVMCLNGNWTEPPQCKDSTGKCGPPPPIDNGDITSFPLSVYAPASSVEYQCQNLYQLEGNKRITCRNGQWSEPPKCLHPCVISREIMENYNIALRWTAKQKLYSRTGESVEFVCKRGYRLSSRSHTLRTTCWDGKLEYPTCAKR
As to B1, the binding entry in assay [1] is reported as “binds”.

B2: full length FHR1 (Factor H-related protein 1), Q03591 19-330 (protein)
chain: EATFCDFPKINHGILYDEEKYKPFSQVPTGEVFYYSCEYNFVSPSKSFWTRITCTEEGWSPTPKCLRLCFFPFVENGHSESSGQTHLEGDTVQIICNTGYRLQNNENNISCVERGWSTPPKCRSTDTSCVNPPTVQNAHILSRQMSKYPSGERVRYECRSPYEMFGDEEVMCLNGNWTEPPQCKDSTGKCGPPPPIDNGDITSFPLSVYAPASSVEYQCQNLYQLEGNKRITCRNGQWSEPPKCLHPCVISREIMENYNIALRWTAKQKLYLRTGESAEFVCKRGYRLSSRSHTLRTTCWDGKLEYPTCAKR
For B2, in assay [2], the binding entry is reported as “binds”.
